Source: article PMC10711657
Results are given in words; binding and its absence hold for the method and conditions named. In cells and extracts the contact can be indirect. These calls come from enrichment with a bait or labelling near it, and not all partners need be listed.

The chains behind the UniProt entries cited, without tags or fusion partners.
UniProt Q08509: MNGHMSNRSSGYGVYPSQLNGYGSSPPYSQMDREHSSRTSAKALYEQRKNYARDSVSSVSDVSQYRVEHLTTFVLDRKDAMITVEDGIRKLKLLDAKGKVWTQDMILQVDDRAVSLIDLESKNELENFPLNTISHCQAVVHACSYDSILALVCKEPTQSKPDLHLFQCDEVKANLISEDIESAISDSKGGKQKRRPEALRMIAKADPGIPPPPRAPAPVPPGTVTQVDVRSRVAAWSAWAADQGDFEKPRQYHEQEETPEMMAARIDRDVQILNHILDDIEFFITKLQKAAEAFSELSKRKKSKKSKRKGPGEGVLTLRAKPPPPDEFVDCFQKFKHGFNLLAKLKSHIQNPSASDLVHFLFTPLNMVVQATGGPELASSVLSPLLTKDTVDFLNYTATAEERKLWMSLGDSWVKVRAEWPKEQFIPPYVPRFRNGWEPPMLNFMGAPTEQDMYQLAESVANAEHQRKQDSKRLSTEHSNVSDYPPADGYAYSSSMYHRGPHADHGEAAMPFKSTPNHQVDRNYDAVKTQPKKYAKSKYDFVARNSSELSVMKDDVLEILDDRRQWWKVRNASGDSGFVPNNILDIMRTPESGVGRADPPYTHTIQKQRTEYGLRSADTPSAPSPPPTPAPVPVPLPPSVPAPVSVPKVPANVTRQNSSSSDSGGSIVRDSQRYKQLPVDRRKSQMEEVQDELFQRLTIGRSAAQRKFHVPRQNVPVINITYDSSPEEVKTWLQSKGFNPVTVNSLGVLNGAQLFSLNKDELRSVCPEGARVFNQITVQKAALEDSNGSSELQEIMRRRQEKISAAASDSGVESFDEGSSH

B1: flightless 1 (Flii) (protein, UniProt Q9JJ28 1-1271)
chain: MEATGVLPFVRGVDLSGNDFKGGYFPENVKAMTSLRWLKLNRTGLCYLPEELAALQKLEHLSVSHNHLTTLHGELSSLPSLRAIVARANSLKNSGVPDDIFKLDDLSVLDLSHNQLTECPRELENAKNMLVLNLSHNGIDSIPNQLFINLTDLLYLDLSENRLESLPPQMRRLVHLQTLVLNGNPLLHAQLRQLPAMMALQTLHLRNTQRTQSNLPTSLEGLSNLSDVDLSCNDLTRVPECLYTLPSLRRLNLSSNQIAELSLCIDQWVHLETLNLSRNQLTSLPSAICKLTKLKKLYLNSNKLDFDGLPSGIGKLTSLEEFMAANNNLELIPESLCRCPKLKKLVLNKNRLVTLPEAIHFLTEIQVLDVRENPSLVMPPKPADRTAEWYNIDFSLQNQLRLAGASPATVAAAAAVGSGSKDPLARKMRLRRRKDSAQDVQAKQVLKGMSDVAQEKNKNQEESIDARAPGGKVRRWDQGLEKPRLDYSEFFTEDVGQLPGLTIWQIENFVPVLVEEAFHGKFYEADCYIVLKTFLDDSGSLNWEIYYWIGGEATLDKKACSAIHAVNLRNYLGAECRTVREEMGDESEEFLQVFDNDISYIEGGTASGFYTVEDTHYVTRMYRVYGKKNIKLEPVPLKGSSLDPRFVFLLDQGLDIYVWRGAQATLSNTTKARLFAEKINKNERKGKAEITLLVQGQEPPGFWDVLGGEPSEIKNHVPDDFWPPQPKLYKVGLGLGYLELPQINYKLSVEHKKRPKVELMPGMRLLQSLLDTRCVYILDCWSDVFIWLGRKSPRLVRAAALKLGQELCGMLHRPRHTVVSRSLEGTEAQVFKAKFKNWDDVLTVDYTRNAEAVLQGQGLSGKVKRDTEKTDQMKADLTALFLPRQPPMPLAEAEQLMEEWNEDLDGMEGFVLEGRKFTRLPEEEFGHFYTQDCYVFLCRYWVPVEYEEEEKTEDKEGKASAEAREGEEAAAEAEEKQPEEDFQCIVYFWQGREASNMGWLTFTFSLQKKFESLFPGKLEVVRMTQQQENPKFLSHFKRKFIIHRGKRKVTQGTLQPTLYQIRTNGSALCTRCIQINTDSSLLNSEFCFILKVPFESEDNQGIVYAWVGRASDPDEAKLAEDILNTMFDASYSKQVINEGEEPENFFWVGIGAQKPYDDDAEYMKHTRLFRCSNEKGYFAVTEKCSDFCQDDLADDDIMLLDNGQEVYMWVGTQTSQVEIKLSLKACQVYIQHTRSKEHERPRRLRLVRKGNEQRAFTRCFHAWSTFRQAPA
B2: Slingshot homology 2 (Ssh2) (protein, UniProt Q5SW75 1-1423)
chain: MALVTVQRSPTPSTTSSPCASEADSGEEECRSQPRSISESFLTVKGAALFLPRGNGSSTPRVSHRRNKHAGDLQQHLQAMFILLRPEDNIRLAVRLESTYQNRTRYMVVVSTNGRQDTEESIVLGMDFSSNDSSTCTMGLVLPLWSDTLIHLDGDGGFSVSTDNRVHIFKPVSVQAMWSALQSLHKACEVARMHNYYPGSLFLTWVSYYESHINSDQSSVNEWNAMQDVQSHRPDSPALFTDIPTERERTERLIKTKLREIMMQKDLENITSKEIRTELEMQMVCNLREFKEFIDNEMIVILGQMDSPTQIFEHVFLGSEWNASNLEDLQNRGVRYILNVTREIDNFFPGVFEYHNIRVYDEEATDLLAYWNDTYKFISKAKKHGSKCLVHCKMGVSRSASTVIAYAMKEYGWNLDRAYDYVKERRTVTKPNPSFMRQLEEYQGILLASKQRHNKLWRSHSDSDLSDHHEPICKPGLELNKKEMTTSADQIAEVKTVENLAAMPTVFMEHVVPQDANQKGLHTKERVICLEFSSQEFRAGQIEDELNLNDINGCSSGCCLSESKLPLDNCHASKALLQPGQAPDIANKFPDLAVEDLETDALKADMNVHLLPMEELTSRLKDLPMSPDLESPSPQASCQAAISDFSTDRIDFFSALEKFVELSQETRSRSFSHSRIEELGGGRSEGCRLSVIEVAASEMAADDQRSSSLSNTPHASEESSVDEDQSKAITELVSPDIIMQSHSENAISVKEIVTEIESISQGVGQVQLKGDILSNPCHTPKKSTIHELPLERVPAPESKPGHWEQDESFCSVQPELARDSGKCAPEEGCLTTHSSTADLEEEEPVEGEHDWGPGMHSGAKWCPGSVRRATLEFEERLRQEQENHGTASAGPTLSNRKNSKNDSSVADLMPKWKSDETTPEHSFFLKEAEPSKGKGKCSGSEAGSLSHCERNPTMPDCELLEHHSLPAPQDCLGSDSRSKKQEGDLKKQRAVVPNQECDTQAILLPLPKKIEIIEYTPTVTSLGHTEPGGEATPSKEGEKQGLRKVKMEQSITMFCALDENLNRTLEPSQVSLHPQVLPLPHSSSECDRPADPNPMLSSPQDKGDCPSTPFKTAAPFVSCSTQGASFSLDYLLPHSVVHLEGCTEQSSATDNELSPEQASWEDSRGHFLSSGSGMAHTSSPLTNEDLSLINKLGDSVGVLQKKLDPSPEACRIPHSSSSENIRDLSHSRGVVKEHAKEIESRVIFQAGFSKTSQMKRSASLAKLGYLDLCKDYLPDRELVSSESPHLKLLQPFLRTDSGMHALMAHEPSESAGAQQNPQPTKYSVEQLKTSECIVQSKPVERPSVQYAKEFGYSQQCLLPKARPELTSSEGGLPLLQTQGLQYTGPSPGLAVAPRQQHGRTHPLRRLKRANDKKRTTNPFYNTM
B3: tropomodulin 2 (Tmod2) (protein, UniProt Q9JKK7 1-351)
chain: MALPFQKGLEKYKNIDEDELLGKLSEEELKQLENVLDDLDPESATLPAGFRQKDQTQKAATGPFDREHLLMYLEKEALEQKDREDFVPFTGEKKGRVFIPKEKPVETRKEEKVTLDPELEEALASASDTELYDLAAVLGVHNLLNNPKFDEETTNGEGRKGPVRNVVKGEKAKPVFEEPPNPTNVEASLQQMKANDPSLQEVNLNNIKNIPIPTLKEFAKSLETNTHVKKFSLAATRSNDPVALAFAEMLKVNKTLKSLNVESNFITGTGILALVEALRENDTLTEIKIDNQRQQLGTAVEMEIAQMLEENSRILKFGYQFTKQGPRTRVAAAITKNNDLVRKKRVEGDRR
B4: coronin 2b (Coro2b) (protein, UniProt Q8BH44 1-480)
chain: MTVTKMSWRPQYRSSKFRNVYGKAANREHCFDGIPITKNVHDNHFCAVNARFLAIVTESAGGGSFLVIPLEQTGRIEPNYPKVCGHQGNVLDIKWNPFIDNIIASCSEDTSVRIWEIPDGGLKRNMTEALLELHGHSRRVGLVEWHPTTNNILFSAGYDYKVLIWNLDIGEPVKMIDCHTDVILCMSFNTDGSLLTTTCKDKKLRVIEPRSGRVLQEANCKNHRVNRVVFLGNMKRLLTTGVSRWNTRQIALWDQEDLSMPMIEEEIDGLSGLLFPFYDADTHMLYLAGKGDGNIRYYEISTEKPYLSYLMEFRSPAPQKGLGVMPKHGLDVSACEVFRFYKLVTLKGLIEPISMIVPRRSDSYQEDIYPMTPGTEPALTPDEWLGGINRDPVLMSLKEGYKKSSKVVFKAPIREKKSVVVNGIDLLENVPPRTENELLRMFFRQQDEIRRLKEELAQKDIRLRQLQLELKNLRNNPKNC
B5: Myl6 (protein, UniProt Q60605 1-151)
chain: MCDFTEDQTAEFKEAFQLFDRTGDGKILYSQCGDVMRALGQNPTNAEVLKVLGNPKSDEMNVKVLDFEHFLPMLQTVAKNKDQGTYEDYVEGLRVFDKEGNGTVMGAEIRHVLVTLGEKMTEEEVEMLVAGHEDSNGCINYEAFVRHILSG
B6: Myl12a (protein, UniProt Q6ZWQ9 1-172)
chain: MSSKRAKTKTTKKRPQRATSNVFAMFDQSQIQEFKEAFNMIDQNRDGFIDKEDLHDMLASMGKNPTDEYLDAMMNEAPGPINFTMFLTMFGEKLNGTDPEDVIRNAFACFDEEAIGTIQEDYLRELLTTMGDRFTDEEVDELYREAPIDKKGNFNYIEFTRILKHGAKDKDD
B7: Myl12b (protein, UniProt Q3THE2 1-172)
chain: MSSKKAKTKTTKKRPQRATSNVFAMFDQSQIQEFKEAFNMIDQNRDGFIDKEDLHDMLASLGKNPTDAYLDAMMNEAPGPINFTMFLTMFGEKLNGTDPEDVIRNAFACFDEEATGTIQEDYLRELLTTMGDRFTDEEVDELYREAPIDKKGNFNYIEFTRILKHGAKDKDD
B8: Myo1b (protein, UniProt P46735 1-1107)
chain: MAKMEVKSSLLDNMIGVGDMVLLEPLNEETFIDNLKKRFDHNEIYTYIGSVVISVNPYRSLPIYSPEKVEDYRNRNFYELSPHIFALSDEAYRSLRDQDKDQCILITGESGAGKTEASKLVMSYVAAVCGKGAEVNQVKEQLLQSNPVLEAFGNAKTVRNDNSSRFGKYMDIEFDFKGDPLGGVISNYLLEKSRVVKQPRGERNFHVFYQLLSGASEELLYKLKLERDFSRYNYLSLDSAKVNGVDDAANFRTVRNAMQIVGFLDHEAEAVLEVVAAVLKLGNIEFKPESRVNGLDESKIKDKNELKEICELTSIDQVVLERAFSFRTVEAKQEKVSTTLNVAQAYYARDALAKNLYSRLFSWLVNRINESIKAQTKVRKKVMGVLDIYGFEIFEDNSFEQFIINYCNEKLQQIFIELTLKEEQEEYIREDIEWTHIDYFNNAIICDLIENNTNGILAMLDEECLRPGTVTDETFLEKLNQVCATHQHFESRMSKCSRFLNDTTLPHSCFRIQHYAGKVLYQVEGFVDKNNDLLYRDLSQAMWKAGHSLIKSLFPEGNPAKVNLKRPPTAGSQFKASVATLMRNLQTKNPNYIRCIKPNDKKAAHIFNESLVCHQIRYLGLLENVRVRRAGYAFRQAYEPCLERYKMLCKQTWPHWKGPARSGVEVLFNELEIPVEEHSFGRSKIFIRNPRTLFQLEDLRKQRLEDLATLIQKIYRGWKCRTHFLLMKRSQVVIAAWYRRYAQQKRYQQIKSSALVIQSYIRGWKARKILRELKHQKRCKEAATTIAAYWHGTQARRELKRLKEEARRKHAVAVIWAYWLGLKVRREYRKFFRANAGKKIYEFTLQRIVQKYLLEMKNKMPSLSPIDKNWPSRPYLFLDSTHKELKRIFHLWRCKKYRDQFTDQQKLIYEEKLEASELFKDKKALYPSSVGQPFQGAYLEINKNPKYKKLKDAIEEKIIIAEVVNKINRANGKSTSRIFLLTNNNLLLADQKSGQIKSEVPLVDVTKVSMSSQNDGFFAVHLKEGSEAASKGDFLFSSDHLIEMATKLYRTTLSQTKQKLNIEISDEFLVQFRQDKVCVKFIQGNQKNGSVPTCKRKNNRLLEVAVP
B9: Cdc42ep1 (MSE55) (protein, UniProt Q91W92 1-409)
chain: MPGPQGGTGAPTMSLGKLSPVGWVSSSHGKRRLTADMISPPLGDFRHTMHVGRGGDVFGDTSFLSNHGGRSGNTHRSPRSFLARKLQQVRRVGVPPRRMASPAAPSPAPPPISPIIKNAISLPQLNQATYDSLVMGKLSFDSTPASSTDGHSGYGLESGFCTISRLPRVEKHSNRDRDRDPDHSQDREQSSFPSEPTPNPELRRSDSLLSFRFDLDLGPSLLSELLGVMSLSEAPAAETPVPTANPPAPAANPAPTAKPPAHAITTLDAVTSLPASAVTSLPAPAAASSPSRGHFPNGVTSVLGPAAEAKPSPVGEGPQVPSNMTFDRHGASWGASRASWGASRASRHYTEMDARRELAGVLPQVHGSWESLNEDWSTPPASVRAPVPTSVQVNAFEFADAEEDDEVKV

biological target: GFP‐Eps8‐wild type (WT) (mouse (primer names: mEps8)) (UniProt Q08509); test: affinity purification with mass spectrometry; whole-cell GFP-trap pull-down of GFP-Eps8-WT bait from transfected CAD cells treated with DMSO or 50 μM CK-666 for 1 h; on-bead digestion, LC-MS/MS; hits against cytosolic GFP-expressing cells; three preparations

Q: With B1 as the binder, how does the binding read?
A: binds

Q: Which binding does the source give for B2 here?
A: binds

Q: With B3 as the binder, how does the binding read?
A: binds

Q: Which binding does the source give for B4 here?
A: binds

Q: For B5, which binding is on record?
A: binds

Q: B6 was tested. Which binding did it give?
A: binds

Q: How did the binding turn out when B7 was run?
A: binds

Q: B8 was tested. Which binding did it give?
A: binds

Q: Which binding does the source give for B9 here?
A: binds
